Ki data for one compound are collected here from publication PMC6010127, “Sulfonamide inhibition studies of two β-carbonic anhydrases from the ascomycete fungus Sordaria macrospora, CAS1 and CAS2” (Journal of Enzyme Inhibition and Medicinal Chemistry, 2018).

The target of one assay is T1, CAS2 (Sordaria macrospora, UniProt C1L336).
T1 construct: recombinant, obtained in-house
T1 sequence (C1L336 54-284): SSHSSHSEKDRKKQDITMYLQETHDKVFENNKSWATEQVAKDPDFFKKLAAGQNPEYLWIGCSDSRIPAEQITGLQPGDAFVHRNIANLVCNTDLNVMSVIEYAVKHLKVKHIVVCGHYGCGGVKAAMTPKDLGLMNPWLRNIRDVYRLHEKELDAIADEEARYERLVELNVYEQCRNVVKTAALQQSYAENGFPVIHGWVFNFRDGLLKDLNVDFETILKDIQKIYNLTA
Put plainly: stopped-flow CO2 hydration assay. The format is biochemical. The note with it: read-out: KI^a (nM) / CAS2^c / β. The source says: stopped-flow CO2 hydration assay on CAS2

The next assay addresses T2, CAS1 (Sordaria macrospora, UniProt F7VW42).
T2 construct: gene SMAC_03420; recombinant, obtained in-house
T2 sequence (F7VW42 1-234): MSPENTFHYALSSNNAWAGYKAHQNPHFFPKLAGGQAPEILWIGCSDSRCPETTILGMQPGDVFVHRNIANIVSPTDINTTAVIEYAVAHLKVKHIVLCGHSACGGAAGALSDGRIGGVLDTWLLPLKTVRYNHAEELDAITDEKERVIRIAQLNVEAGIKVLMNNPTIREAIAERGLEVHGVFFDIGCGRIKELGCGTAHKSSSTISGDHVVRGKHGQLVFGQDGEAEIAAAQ
Put plainly: stopped-flow CO2 hydration assay. The format is biochemical.

For the compound `CCN[C@H]1C[C@H](C)S(=O)(=O)c2sc(S(N)(=O)=O)cc21` [DZA, dorzolamide], the results for the Ki at CAS2 and at CAS1 were 742 nM and 360 nM, respectively.
